PubChem BioAssay AID1259405 | NCATS | 2018
The deposit covers about 50,000 reagents; below is a random part of them. About 4,000 of them (8%) count as active. 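Mouse siRNA library applied to hamster cells; one well for each siRNA.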 Reagents against one gene are numbered here. No sequences are given here.

Aim: 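Mouse-designed siRNAs used to find CHO productivity engineering targets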 (primary screen)
Cell system: Chinese hamster CHO-K1 ovary cells with stable secreted eGFP expression
Reagent: single siRNA against mouse genes, 0.8 pmol siRNA per well (2 µl of 400 nM stock)
Time to read-out: 3 days
Measurement: 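Per-well intracellular GFP measured by laser scanning cytometry, plus viability from ATP luminescence, each relative to plate median of non-targeting control wells, in %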
Direction: GFP, % of control: higher = more GFP per well, higher productivity; viability (ATP), % of control: higher = more viable cells (more ATP)
Active means: 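a knock-down is called active if GFP reaches 120% or more of non-targeting control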

With knock-down of Tnip1 (GeneID 57783) #1 the results were GFP, % of control 61.8; viability (ATP), % of control 57.9; inactive.
Against Tnip1 (GeneID 57783) #2, the entry reads GFP, % of control 96.4; viability (ATP), % of control 147; inactive.
Against Tnip1 (GeneID 57783) #3, the values are GFP, % of control 130; viability (ATP), % of control 132; active.
Depletion of Klhl5 (GeneID 71778) #1 gave: GFP, % of control 67.4; viability (ATP), % of control 73.5; inactive.
For Klhl5 (GeneID 71778) #2, the values are GFP, % of control 51.6; viability (ATP), % of control 45.3; inactive.
Knock-down of Klhl5 (GeneID 71778) #3 came out at: GFP, % of control 104; viability (ATP), % of control 83.9; inactive.
Knock-down of Zbtb20 (GeneID 56490) #1 came out at: GFP, % of control 109; viability (ATP), % of control 92.4; inactive.
Knock-down of Zbtb20 (GeneID 56490) #2 resulted in: GFP, % of control 58.7; viability (ATP), % of control 78; inactive.

Part of the list above, reformatted:
Klhl5 (GeneID 71778) #1
- GFP, % of control: 67.4
- viability (ATP), % of control: 73.5
- Call: inactive

Klhl5 (GeneID 71778) #2
- GFP, % of control: 51.6
- viability (ATP), % of control: 45.3
- Call: inactive

More records follow:
Gpc5 (GeneID 103978) #1 gave GFP, % of control 57.8; viability (ATP), % of control 93.5; inactive.
Gpc5 (GeneID 103978) #2 gave GFP, % of control 93; viability (ATP), % of control 81.3; inactive.
Gpc5 (GeneID 103978) #3 gave GFP, % of control 49.2; viability (ATP), % of control 65.3; inactive.
Depletion of Ap1ar (GeneID 211556) #1 gave: GFP, % of control 105; viability (ATP), % of control 62.1; inactive.
Knock-down of Ap1ar (GeneID 211556) #2 resulted in: GFP, % of control 106; viability (ATP), % of control 63; inactive.
Against Ap1ar (GeneID 211556) #3 the deposit lists GFP, % of control 114; viability (ATP), % of control 84.2; inactive.
For Arpp21 (GeneID 74100) #1 the deposit lists GFP, % of control 93.8; viability (ATP), % of control 85.5; inactive.
Against Arpp21 (GeneID 74100) #2, the values are GFP, % of control 98.4; viability (ATP), % of control 71.8; inactive.
Against Arpp21 (GeneID 74100) #3 the deposit lists GFP, % of control 146; viability (ATP), % of control 108; active.
